This note sets out measurements from the supplement of paper PMC5836539.

By UniProt entry, the sequences of proteins in these tests, tags left out. Where a name states a change or a piece, a line headed by the entry shows the natural chain unless it says otherwise.
UniProt Q96CV9, whole entry, looked up: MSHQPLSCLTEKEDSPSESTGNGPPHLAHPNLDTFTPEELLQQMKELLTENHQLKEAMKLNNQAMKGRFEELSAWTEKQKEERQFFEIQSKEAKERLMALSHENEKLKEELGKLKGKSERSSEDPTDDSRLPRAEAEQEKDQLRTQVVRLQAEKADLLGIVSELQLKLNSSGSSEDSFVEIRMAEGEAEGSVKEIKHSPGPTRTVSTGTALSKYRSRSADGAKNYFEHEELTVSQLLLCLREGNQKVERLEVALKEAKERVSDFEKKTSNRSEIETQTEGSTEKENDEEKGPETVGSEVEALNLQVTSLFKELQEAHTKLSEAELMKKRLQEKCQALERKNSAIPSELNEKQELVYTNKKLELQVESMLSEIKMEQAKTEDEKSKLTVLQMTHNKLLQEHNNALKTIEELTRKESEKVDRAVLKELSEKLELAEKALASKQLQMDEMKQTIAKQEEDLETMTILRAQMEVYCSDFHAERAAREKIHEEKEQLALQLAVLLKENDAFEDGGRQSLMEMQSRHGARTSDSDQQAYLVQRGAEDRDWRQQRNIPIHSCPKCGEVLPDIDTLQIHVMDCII
UniProt Q9NYF8, whole entry, looked up: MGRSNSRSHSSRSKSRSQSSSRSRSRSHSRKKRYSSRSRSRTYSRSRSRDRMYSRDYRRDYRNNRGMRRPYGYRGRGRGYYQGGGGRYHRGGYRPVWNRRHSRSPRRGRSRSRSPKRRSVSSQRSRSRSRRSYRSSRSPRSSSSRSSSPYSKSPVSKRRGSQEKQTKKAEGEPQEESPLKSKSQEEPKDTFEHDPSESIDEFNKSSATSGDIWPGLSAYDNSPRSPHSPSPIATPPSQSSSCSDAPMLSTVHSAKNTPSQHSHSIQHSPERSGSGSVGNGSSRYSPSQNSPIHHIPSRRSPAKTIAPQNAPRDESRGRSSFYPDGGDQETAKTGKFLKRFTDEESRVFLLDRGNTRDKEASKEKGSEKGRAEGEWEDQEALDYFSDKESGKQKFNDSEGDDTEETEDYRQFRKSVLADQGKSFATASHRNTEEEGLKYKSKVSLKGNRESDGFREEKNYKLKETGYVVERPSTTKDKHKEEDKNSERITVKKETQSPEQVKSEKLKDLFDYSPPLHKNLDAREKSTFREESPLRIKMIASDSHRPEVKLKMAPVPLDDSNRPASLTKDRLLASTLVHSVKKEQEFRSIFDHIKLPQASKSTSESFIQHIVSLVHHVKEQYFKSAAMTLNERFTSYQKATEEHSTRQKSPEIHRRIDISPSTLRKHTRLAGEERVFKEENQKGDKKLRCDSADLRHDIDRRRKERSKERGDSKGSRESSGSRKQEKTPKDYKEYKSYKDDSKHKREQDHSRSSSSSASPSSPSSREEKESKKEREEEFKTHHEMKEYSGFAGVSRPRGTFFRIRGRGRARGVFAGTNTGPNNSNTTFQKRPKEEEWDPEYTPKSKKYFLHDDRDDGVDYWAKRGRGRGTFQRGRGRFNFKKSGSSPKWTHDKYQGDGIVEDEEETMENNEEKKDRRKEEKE
UniProt O00178: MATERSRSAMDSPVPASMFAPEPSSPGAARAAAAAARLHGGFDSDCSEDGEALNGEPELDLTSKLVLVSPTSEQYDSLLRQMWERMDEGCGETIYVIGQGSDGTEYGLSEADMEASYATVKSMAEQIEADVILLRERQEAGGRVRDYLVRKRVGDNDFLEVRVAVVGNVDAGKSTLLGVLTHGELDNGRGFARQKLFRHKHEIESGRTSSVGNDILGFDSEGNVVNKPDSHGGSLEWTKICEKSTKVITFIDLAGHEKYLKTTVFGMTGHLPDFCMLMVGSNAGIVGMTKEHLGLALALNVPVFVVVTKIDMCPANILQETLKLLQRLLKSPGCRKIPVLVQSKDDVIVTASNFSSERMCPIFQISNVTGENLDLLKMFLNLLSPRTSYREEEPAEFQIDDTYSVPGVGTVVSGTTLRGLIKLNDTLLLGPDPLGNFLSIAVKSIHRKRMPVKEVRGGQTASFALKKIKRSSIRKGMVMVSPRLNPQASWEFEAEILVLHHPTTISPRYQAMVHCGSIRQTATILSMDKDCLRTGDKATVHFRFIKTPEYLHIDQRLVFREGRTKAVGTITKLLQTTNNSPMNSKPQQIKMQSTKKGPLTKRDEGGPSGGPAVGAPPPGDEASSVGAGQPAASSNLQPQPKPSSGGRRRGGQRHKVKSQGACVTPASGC
UniProt Q9NZ32, whole entry: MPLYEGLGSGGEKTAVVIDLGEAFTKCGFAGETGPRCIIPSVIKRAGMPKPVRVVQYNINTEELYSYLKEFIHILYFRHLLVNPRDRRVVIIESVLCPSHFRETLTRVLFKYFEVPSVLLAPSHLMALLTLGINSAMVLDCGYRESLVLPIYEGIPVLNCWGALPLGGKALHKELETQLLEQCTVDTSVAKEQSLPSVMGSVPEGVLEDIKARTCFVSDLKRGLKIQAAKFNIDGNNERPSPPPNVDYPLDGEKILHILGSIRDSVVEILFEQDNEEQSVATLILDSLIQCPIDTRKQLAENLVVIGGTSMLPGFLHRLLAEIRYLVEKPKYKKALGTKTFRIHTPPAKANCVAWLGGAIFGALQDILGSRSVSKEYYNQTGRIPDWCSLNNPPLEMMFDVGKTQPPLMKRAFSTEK
UniProt P08651, whole entry, looked up: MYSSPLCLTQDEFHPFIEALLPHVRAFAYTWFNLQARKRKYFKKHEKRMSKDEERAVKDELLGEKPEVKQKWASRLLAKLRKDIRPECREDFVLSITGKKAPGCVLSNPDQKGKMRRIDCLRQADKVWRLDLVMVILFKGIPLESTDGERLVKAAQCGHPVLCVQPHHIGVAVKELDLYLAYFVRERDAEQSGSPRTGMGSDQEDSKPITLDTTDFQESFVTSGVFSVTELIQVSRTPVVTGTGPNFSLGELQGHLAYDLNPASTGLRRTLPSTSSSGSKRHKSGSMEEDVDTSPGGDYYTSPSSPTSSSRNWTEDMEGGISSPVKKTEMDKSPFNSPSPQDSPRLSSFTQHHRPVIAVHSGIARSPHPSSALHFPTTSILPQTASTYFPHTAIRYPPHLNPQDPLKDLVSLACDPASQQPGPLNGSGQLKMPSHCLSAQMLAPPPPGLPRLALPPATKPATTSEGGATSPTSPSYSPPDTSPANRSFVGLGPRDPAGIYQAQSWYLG
UniProt Q96Q42: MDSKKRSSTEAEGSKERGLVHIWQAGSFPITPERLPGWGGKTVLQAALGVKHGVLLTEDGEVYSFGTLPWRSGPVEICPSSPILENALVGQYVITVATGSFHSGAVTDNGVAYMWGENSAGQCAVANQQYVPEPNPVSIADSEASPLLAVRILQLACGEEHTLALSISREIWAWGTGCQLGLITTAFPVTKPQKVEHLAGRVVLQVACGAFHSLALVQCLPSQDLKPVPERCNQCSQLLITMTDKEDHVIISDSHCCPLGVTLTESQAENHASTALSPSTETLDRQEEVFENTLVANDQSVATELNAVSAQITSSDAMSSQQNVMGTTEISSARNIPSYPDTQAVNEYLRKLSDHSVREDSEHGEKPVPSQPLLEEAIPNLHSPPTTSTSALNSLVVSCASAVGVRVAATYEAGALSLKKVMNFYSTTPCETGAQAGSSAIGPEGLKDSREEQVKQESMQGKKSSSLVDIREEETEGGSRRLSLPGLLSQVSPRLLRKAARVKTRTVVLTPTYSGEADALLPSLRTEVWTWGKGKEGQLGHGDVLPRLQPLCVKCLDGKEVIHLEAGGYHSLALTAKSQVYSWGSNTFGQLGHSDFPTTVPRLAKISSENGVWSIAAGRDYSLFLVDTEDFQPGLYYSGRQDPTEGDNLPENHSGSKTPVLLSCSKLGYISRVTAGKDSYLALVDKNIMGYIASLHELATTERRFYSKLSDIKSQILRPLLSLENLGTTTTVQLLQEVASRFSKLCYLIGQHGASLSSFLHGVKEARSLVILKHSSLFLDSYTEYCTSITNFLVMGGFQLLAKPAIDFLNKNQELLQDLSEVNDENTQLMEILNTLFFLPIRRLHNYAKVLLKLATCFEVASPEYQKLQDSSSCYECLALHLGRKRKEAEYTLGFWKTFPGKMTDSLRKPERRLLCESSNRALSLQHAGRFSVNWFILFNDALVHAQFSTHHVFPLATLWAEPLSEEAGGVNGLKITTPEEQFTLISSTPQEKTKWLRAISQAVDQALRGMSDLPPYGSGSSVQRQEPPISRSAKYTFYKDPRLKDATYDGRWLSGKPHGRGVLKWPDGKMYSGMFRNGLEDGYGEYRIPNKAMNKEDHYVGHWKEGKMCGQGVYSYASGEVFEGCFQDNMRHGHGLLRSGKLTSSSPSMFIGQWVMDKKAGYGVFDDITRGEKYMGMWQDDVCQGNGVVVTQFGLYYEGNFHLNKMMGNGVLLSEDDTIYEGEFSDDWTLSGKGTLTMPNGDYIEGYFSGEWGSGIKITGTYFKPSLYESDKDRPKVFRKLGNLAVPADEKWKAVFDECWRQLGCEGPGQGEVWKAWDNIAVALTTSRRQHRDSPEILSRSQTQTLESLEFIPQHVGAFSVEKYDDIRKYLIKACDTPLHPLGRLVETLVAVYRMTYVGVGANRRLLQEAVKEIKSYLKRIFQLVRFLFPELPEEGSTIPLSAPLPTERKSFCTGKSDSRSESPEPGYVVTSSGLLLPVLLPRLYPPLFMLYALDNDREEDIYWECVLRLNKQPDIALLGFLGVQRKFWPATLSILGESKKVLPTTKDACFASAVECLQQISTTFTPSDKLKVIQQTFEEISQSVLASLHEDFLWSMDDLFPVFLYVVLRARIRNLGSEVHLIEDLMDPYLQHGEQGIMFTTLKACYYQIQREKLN
UniProt P05387, whole entry: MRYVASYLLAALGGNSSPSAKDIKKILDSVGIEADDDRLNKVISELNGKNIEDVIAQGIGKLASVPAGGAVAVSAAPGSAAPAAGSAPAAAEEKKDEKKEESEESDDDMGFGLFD
UniProt Q04637, whole entry, looked up: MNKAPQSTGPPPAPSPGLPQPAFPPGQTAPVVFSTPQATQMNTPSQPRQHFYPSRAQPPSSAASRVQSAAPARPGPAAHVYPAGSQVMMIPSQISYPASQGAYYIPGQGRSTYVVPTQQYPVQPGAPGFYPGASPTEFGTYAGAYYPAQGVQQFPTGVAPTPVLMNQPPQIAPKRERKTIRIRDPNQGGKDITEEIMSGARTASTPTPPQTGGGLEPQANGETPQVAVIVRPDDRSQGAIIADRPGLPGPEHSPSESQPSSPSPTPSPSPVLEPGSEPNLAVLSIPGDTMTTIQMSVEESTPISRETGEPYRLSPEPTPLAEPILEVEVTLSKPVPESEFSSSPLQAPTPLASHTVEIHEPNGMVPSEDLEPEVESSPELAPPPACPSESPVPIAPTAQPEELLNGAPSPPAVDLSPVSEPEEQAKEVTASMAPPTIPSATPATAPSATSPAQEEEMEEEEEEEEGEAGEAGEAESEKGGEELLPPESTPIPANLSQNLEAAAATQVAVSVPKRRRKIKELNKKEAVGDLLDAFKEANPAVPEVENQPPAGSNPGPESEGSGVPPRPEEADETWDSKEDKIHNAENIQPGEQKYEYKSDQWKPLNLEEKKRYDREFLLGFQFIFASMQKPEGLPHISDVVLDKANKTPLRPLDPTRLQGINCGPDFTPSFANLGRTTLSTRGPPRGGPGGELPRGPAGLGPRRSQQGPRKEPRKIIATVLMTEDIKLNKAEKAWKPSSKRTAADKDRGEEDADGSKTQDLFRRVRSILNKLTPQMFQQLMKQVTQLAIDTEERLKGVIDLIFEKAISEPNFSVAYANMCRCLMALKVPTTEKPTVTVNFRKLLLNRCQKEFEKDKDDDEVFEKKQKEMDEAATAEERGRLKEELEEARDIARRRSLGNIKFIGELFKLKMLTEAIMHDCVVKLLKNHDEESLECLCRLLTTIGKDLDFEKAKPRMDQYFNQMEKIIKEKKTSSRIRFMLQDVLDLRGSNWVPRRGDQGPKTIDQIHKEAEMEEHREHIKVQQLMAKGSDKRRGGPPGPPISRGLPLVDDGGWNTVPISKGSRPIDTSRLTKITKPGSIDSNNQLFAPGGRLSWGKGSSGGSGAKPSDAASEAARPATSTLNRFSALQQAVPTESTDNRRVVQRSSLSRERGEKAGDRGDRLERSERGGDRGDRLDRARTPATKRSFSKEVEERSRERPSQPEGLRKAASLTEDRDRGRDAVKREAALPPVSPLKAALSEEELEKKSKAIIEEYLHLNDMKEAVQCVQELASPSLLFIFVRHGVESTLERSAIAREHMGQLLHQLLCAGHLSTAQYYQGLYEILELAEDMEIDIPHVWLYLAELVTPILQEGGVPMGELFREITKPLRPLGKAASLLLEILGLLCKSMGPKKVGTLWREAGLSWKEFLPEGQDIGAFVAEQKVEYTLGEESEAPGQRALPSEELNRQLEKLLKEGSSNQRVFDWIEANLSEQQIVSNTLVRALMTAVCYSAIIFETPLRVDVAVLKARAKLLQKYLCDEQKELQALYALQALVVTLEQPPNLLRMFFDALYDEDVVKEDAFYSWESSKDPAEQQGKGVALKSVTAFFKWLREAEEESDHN

± gives the standard deviation of the averaged measurements. Repeats in this data set agree poorly, so a single value says little.

Compound in this experiment: CC[C@@H](C)Nc1cc(C(=O)N[C@H]2C[C@H]3CC[C@@H](C2)N3c2ccc(C(=O)C3CC3)cn2)c(C)cc1C(N)=O [XL888]
Description: phosphopeptide melting temperature shift (XL888 minus DMSO); higher = stabilised by drug treatment. To be noted: 100 µM; treatment time 2 h; layout: intact cells; SK-Mel 24. How it is done:
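Phospho-TPP in intact SK-Mel 24 cells treated with 100 uM XL888 or DMSO for 2 h, heated at 10 temperatures (37-67 C) for 3 min, soluble fraction TMT10plex-labelled and TiO2 phospho-enriched. Melting curves were fitted per phosphopeptide; the value is the melting point difference (drug minus vehicle) in each of two biological replicates.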
In the case of “UniProt Q7Z5K2_phosphosite_221 (phosphosite position: 221)”, the “phosphopeptide melting temperature shift” value was 2.47 ± 2.1 °C. For the target “UniProt Q02241-3_phosphosite_503 (phosphosite position: 503)”, the “phosphopeptide melting temperature shift” value turned out to be 5.7 °C. The result for “UniProt O00499-9_phosphosite_267 (phosphosite position: 267)” reads 1.12 °C; that for “RBM27 phosphosite_120 (phosphosite position: 120) (UniProt Q9P2N5)”, -0.0614 °C. The result for “UniProt Q86V48-2_phosphosite_394 (phosphosite position: 394)” reads 0.326 ± 0.2 °C. Regarding “ANKS1A phosphosite_677 (phosphosite position: 677) (UniProt Q92625)”, the “phosphopeptide melting temperature shift” value was -1.41 °C.

As for “UniProt Q96CV9-3_phosphosite_468 (phosphosite position: 468)”, the “phosphopeptide melting temperature shift” value amounted to 2.19 °C.

For “UniProt P85299_phosphosite_11 (phosphosite position: 11)”, the “phosphopeptide melting temperature shift” value is 0.363 °C. For “UniProt Q9ULU8-2_phosphosite_91 (phosphosite position: 91)”, the “phosphopeptide melting temperature shift” value turned out to be 1.55 ± 0.34 °C.

Regarding “UniProt P46937-5_phosphosite_164 (phosphosite position: 164)”, the “phosphopeptide melting temperature shift” value is 2.14 °C. With “UniProt P62258_phosphosite_46 (phosphosite position: 46)”, the “phosphopeptide melting temperature shift” value came out at 1.59 ± 0.3 °C. “UniProt P62070-2_phosphosite_109 (phosphosite position: 109)”: the “phosphopeptide melting temperature shift” value was -1.82 °C.

Take “PSAT1 phosphosite_331 (phosphosite position: 331) (UniProt Q9Y617)”: the “phosphopeptide melting temperature shift” value was -0.0626 °C. The value for “UniProt Q9NYF8-3_phosphosite_646 (phosphosite position: 646)” was 1.4 °C; that for “GTPBP1 phosphosite_25 (phosphosite position: 25) (UniProt O00178)” was -0.0797 °C. The result for “UniProt Q9UKA8-6_phosphosite_27 (phosphosite position: 27)” reads 2.08 °C; that for “LIMA1 phosphosite_15 (phosphosite position: 15) (UniProt Q9UHB6)”, 0.558 °C; that for “LMNA phosphosite_22 (phosphosite position: 22) (UniProt P02545)”, 0.0962 °C. Take “PRPF4B phosphosite_849 (phosphosite position: 849) (UniProt Q13523)”: the “phosphopeptide melting temperature shift” value stood at 0.647 °C. The value for “MYO18A phosphosite_140 (phosphosite position: 140) (UniProt Q92614)” was -1.02 ± 0.81 °C. Regarding “ACIN1 phosphosite_216 (phosphosite position: 216) (UniProt Q9UKV3)”, the “phosphopeptide melting temperature shift” value came out at 3.87 °C. Take “TRAFD1 phosphosite_415 (phosphosite position: 415) (UniProt O14545)”: the “phosphopeptide melting temperature shift” value was -1.48 °C. For “PPIG phosphosite_413 (phosphosite position: 413) (UniProt Q13427)”, the “phosphopeptide melting temperature shift” value is -0.186 °C. The value for “UniProt Q9NYF8-3_phosphosite_658 (phosphosite position: 658)” was 1.34 °C; that for “PRPF3 phosphosite_619 (phosphosite position: 619) (UniProt O43395)” was -0.538 °C; that for “MAP4 phosphosite_696 (phosphosite position: 696) (UniProt P27816)” was 1.63 °C. For the target “THRAP3 phosphosite_672 (phosphosite position: 672) (UniProt Q9Y2W1)”, the “phosphopeptide melting temperature shift” value was determined as 1.5 ± 0.1 °C. Take “ACTR10 phosphosite_414 (phosphosite position: 414) (UniProt Q9NZ32)”: the “phosphopeptide melting temperature shift” value was -1.29 °C. Regarding “ANXA2 phosphosite_19 (phosphosite position: 19) (UniProt P07355)”, the “phosphopeptide melting temperature shift” value was -0.0348 ± 0.078 °C.

On to “UniProt P08651-4_phosphosite_289 (phosphosite position: 289)”, for which the “phosphopeptide melting temperature shift” value was 0.501 °C.

As for “SRRM2 phosphosite_323 (phosphosite position: 323) (UniProt Q9UQ35)”, the “phosphopeptide melting temperature shift” value was 3.54 °C. On to “ALS2 phosphosite_466 (phosphosite position: 466) (UniProt Q96Q42)”, for which the “phosphopeptide melting temperature shift” value turned out to be 0.402 °C. With “GAPDH phosphosite_211 (phosphosite position: 211) (UniProt P04406)”, the “phosphopeptide melting temperature shift” value was found to be 1.76 °C. “UniProt P48634_phosphosite_456 (phosphosite position: 456)”: the “phosphopeptide melting temperature shift” value is -1.01 °C.

For “MCM3 phosphosite_674 (phosphosite position: 674) (UniProt P25205)”, the “phosphopeptide melting temperature shift” value was 3.05 °C. For “UniProt Q6GQQ9-2_phosphosite_449 (phosphosite position: 449)”, the “phosphopeptide melting temperature shift” value was found to be 1.64 °C.

As for “NUF2 phosphosite_247 (phosphosite position: 247) (UniProt Q9BZD4)”, the “phosphopeptide melting temperature shift” value was 0.514 °C.

Regarding “UniProt Q9NYF8-3_phosphosite_656 (phosphosite position: 656)”, the “phosphopeptide melting temperature shift” value stood at 1.52 ± 1.6 °C. In the case of “CEP170 phosphosite_379 (phosphosite position: 379) (UniProt Q5SW79)”, the “phosphopeptide melting temperature shift” value was 1.32 °C.

Regarding “UniProt Q7Z5L9-2_phosphosite_344 (phosphosite position: 344)”, the “phosphopeptide melting temperature shift” value is -0.893 °C. Take “UniProt Q14498-2_phosphosite_97 (phosphosite position: 97)”: the “phosphopeptide melting temperature shift” value came to 0.395 °C.

With “UniProt Q96T37-4_phosphosite_248 (phosphosite position: 248)”, the “phosphopeptide melting temperature shift” value is -0.413 °C. Turning to “UniProt P35251-2_phosphosite_156 (phosphosite position: 156)”, the “phosphopeptide melting temperature shift” value is 0.442 °C. Take “UniProt Q9BXP5-5_phosphosite_507 (phosphosite position: 507)”: the “phosphopeptide melting temperature shift” value was -0.109 °C. The value for “RPLP2 phosphosite_102 (phosphosite position: 102) (UniProt P05387)” was -0.828 °C.

Take “IRS2 phosphosite_1100 (phosphosite position: 1100) (UniProt Q9Y4H2)”: the “phosphopeptide melting temperature shift” value was 0.805 ± 0.77 °C.

Consider “UniProt Q9H1B7_phosphosite_547 (phosphosite position: 547)”, for which the “phosphopeptide melting temperature shift” value is 1.82 °C. The result for “UniProt Q9P1Y6-2_phosphosite_1202 (phosphosite position: 1202)” reads 1.84 ± 2.8 °C. On to “UniProt O14617-2_phosphosite_738 (phosphosite position: 738)”, for which the “phosphopeptide melting temperature shift” value amounted to 0.904 °C. “HTATSF1 phosphosite_498 (phosphosite position: 498) (UniProt O43719)”: the “phosphopeptide melting temperature shift” value was 0.811 ± 0.25 °C. Regarding “ENO1 phosphosite_272 (phosphosite position: 272) (UniProt P06733)”, the “phosphopeptide melting temperature shift” value was -2.44 °C.

With “UniProt Q96S55-2_phosphosite_133 (phosphosite position: 133)”, the “phosphopeptide melting temperature shift” value is -0.708 ± 0.76 °C. For “LMNA phosphosite_107 (phosphosite position: 107) (UniProt P02545)”, the “phosphopeptide melting temperature shift” value was 2.68 °C. The result for “YWHAZ phosphosite_207 (phosphosite position: 207) (UniProt P63104)” reads 0.225 °C. In the case of “LCP1 phosphosite_5 (phosphosite position: 5) (UniProt P13796)”, the “phosphopeptide melting temperature shift” value was determined as 2.25 °C.

On to “UniProt Q96TA0_phosphosite_131 (phosphosite position: 131)”, for which the “phosphopeptide melting temperature shift” value is -0.328 °C. Regarding “UniProt Q04637-6_phosphosite_1013 (phosphosite position: 1013)”, the “phosphopeptide melting temperature shift” value was -1.02 °C. The value for “NUCKS1 phosphosite_223 (phosphosite position: 223) (UniProt Q9H1E3)” was 2.71 °C; that for “EEF2 phosphosite_57 (phosphosite position: 57) (UniProt P13639)” was 1.48 ± 1.3 °C. Take “UniProt P18858-2_phosphosite_76 (phosphosite position: 76)”: the “phosphopeptide melting temperature shift” value was -0.438 °C. “RBMXL1 phosphosite_208 (phosphosite position: 208) (UniProt Q96E39)”: the “phosphopeptide melting temperature shift” value came to 0.747 °C. Take “PRPF38B phosphosite_320 (phosphosite position: 320) (UniProt Q5VTL8)”: the “phosphopeptide melting temperature shift” value was 0.756 ± 2.3 °C.

Regarding “PCTK3 phosphosite_130 (phosphosite position: 130) (UniProt Q07002)”, the “phosphopeptide melting temperature shift” value was determined as 0.689 °C. The result for “UniProt Q9BUH6_phosphosite_152 (phosphosite position: 152)” reads 0.669 °C. Consider “HSPA4 phosphosite_76 (phosphosite position: 76) (UniProt P34932)”, for which the “phosphopeptide melting temperature shift” value was -1.71 °C.

With “UniProt P29590-2_phosphosite_403 (phosphosite position: 403)”, the “phosphopeptide melting temperature shift” value turned out to be 3.69 °C. With “UniProt P43487-2_phosphosite_187 (phosphosite position: 187)”, the “phosphopeptide melting temperature shift” value is -1.87 ± 0.78 °C.
